6 molecules from paper PMC11788927 can be followed below.

The chains behind the UniProt entries cited, without tags or fusion partners.
UniProt O94913: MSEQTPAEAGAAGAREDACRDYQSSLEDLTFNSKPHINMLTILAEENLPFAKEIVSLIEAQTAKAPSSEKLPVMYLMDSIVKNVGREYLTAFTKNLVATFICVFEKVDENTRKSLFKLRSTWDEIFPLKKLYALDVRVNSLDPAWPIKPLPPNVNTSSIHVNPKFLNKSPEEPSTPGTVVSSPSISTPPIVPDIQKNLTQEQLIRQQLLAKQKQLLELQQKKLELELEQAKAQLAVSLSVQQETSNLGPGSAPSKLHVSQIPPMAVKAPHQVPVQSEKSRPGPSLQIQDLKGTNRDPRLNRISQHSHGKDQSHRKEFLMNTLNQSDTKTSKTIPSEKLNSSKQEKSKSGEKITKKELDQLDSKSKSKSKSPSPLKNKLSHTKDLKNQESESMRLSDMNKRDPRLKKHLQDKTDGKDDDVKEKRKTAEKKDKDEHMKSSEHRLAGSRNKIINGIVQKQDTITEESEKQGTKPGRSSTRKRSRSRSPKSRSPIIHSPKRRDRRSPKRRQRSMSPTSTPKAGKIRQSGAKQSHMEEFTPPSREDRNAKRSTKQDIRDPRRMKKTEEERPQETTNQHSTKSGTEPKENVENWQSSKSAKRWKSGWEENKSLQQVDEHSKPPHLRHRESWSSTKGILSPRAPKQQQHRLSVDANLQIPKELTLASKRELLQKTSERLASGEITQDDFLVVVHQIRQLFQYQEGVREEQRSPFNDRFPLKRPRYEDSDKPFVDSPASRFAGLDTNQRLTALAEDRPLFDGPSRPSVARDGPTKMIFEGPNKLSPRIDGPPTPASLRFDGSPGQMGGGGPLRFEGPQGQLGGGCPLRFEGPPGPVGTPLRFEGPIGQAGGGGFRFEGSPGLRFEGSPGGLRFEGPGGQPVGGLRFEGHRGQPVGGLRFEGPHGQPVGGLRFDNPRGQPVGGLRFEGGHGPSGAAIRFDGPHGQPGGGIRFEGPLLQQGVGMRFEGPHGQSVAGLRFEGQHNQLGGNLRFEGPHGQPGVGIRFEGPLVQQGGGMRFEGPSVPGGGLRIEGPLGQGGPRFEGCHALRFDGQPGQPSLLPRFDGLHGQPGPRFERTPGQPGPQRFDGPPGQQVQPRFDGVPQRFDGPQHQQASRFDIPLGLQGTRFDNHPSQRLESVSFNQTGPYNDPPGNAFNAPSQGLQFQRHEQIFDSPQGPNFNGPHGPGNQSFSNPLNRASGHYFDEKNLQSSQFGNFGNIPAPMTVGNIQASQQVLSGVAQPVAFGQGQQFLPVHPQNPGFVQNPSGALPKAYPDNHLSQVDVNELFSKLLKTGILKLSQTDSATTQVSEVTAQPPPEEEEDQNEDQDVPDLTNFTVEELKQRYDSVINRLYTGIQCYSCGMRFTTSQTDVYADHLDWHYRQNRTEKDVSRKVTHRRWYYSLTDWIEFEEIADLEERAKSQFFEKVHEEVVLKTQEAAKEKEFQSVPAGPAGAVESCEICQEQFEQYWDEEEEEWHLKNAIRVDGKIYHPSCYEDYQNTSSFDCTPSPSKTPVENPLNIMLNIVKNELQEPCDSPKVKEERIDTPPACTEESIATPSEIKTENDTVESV
UniProt P51003: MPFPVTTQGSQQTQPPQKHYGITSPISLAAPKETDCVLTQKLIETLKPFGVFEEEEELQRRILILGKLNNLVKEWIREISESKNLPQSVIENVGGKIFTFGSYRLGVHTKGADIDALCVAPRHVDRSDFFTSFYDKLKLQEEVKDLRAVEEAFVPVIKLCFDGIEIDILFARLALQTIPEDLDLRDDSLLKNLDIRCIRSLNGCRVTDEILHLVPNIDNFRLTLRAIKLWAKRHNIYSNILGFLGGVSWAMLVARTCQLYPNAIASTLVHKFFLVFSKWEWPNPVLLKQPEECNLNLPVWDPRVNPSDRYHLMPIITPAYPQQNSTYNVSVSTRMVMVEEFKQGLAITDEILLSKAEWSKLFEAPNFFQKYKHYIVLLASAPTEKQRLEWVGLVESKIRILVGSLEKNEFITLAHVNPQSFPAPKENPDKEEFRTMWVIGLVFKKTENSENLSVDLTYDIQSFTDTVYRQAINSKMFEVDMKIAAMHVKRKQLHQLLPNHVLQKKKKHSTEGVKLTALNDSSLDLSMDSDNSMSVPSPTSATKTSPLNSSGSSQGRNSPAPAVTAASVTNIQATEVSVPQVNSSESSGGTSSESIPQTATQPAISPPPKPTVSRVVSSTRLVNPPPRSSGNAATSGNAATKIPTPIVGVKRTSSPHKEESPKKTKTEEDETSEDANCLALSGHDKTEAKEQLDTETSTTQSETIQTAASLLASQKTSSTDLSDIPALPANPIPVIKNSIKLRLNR
UniProt O60293: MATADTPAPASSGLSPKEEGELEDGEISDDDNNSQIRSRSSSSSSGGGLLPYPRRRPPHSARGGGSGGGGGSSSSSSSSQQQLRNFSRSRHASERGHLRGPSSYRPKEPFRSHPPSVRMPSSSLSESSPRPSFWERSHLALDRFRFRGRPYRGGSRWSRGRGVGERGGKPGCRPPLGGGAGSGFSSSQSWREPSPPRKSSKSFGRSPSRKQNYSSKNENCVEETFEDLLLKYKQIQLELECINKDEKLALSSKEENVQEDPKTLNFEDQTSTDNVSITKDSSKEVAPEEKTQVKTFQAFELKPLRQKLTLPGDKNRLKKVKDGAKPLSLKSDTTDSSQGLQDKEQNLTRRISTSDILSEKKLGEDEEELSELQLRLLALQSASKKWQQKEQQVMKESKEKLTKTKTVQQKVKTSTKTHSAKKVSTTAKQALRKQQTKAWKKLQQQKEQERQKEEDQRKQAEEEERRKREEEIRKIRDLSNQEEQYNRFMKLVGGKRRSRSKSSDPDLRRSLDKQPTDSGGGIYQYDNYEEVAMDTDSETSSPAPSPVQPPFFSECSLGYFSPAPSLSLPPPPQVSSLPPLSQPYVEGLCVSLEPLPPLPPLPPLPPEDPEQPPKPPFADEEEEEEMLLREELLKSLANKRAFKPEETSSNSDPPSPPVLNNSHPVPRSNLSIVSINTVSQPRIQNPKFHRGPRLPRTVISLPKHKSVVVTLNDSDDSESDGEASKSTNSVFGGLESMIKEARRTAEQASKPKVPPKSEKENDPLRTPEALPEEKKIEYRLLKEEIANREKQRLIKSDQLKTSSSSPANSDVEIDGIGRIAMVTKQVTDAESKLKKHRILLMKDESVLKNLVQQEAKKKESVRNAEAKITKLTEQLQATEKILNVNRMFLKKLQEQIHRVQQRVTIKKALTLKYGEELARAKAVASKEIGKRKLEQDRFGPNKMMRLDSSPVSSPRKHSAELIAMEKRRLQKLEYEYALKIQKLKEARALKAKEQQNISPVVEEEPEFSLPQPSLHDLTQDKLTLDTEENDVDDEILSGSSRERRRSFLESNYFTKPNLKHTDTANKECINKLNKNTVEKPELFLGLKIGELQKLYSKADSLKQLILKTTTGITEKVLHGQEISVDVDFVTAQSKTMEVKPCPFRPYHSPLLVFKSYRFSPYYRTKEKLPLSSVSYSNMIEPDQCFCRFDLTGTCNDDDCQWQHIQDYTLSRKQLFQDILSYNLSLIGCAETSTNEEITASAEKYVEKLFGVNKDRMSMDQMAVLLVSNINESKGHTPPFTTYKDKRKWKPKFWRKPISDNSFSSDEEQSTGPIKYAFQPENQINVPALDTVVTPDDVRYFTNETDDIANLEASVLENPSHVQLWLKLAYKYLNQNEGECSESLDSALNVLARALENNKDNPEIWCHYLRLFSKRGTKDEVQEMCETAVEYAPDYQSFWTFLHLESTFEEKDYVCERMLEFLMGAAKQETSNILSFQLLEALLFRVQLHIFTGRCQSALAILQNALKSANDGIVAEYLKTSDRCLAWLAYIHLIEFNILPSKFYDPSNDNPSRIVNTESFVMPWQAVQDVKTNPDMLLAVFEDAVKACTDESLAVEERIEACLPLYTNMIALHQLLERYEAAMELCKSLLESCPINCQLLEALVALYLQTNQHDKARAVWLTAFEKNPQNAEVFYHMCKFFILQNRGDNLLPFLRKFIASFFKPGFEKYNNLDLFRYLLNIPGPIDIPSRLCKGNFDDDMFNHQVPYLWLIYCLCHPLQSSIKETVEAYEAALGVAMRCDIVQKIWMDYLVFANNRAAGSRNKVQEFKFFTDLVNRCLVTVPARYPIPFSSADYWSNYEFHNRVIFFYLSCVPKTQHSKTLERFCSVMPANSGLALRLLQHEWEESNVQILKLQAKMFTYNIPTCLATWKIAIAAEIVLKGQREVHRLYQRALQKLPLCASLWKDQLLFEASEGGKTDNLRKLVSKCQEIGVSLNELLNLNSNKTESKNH

Common to all, as to assay: proximity labelling; PDB-MS (BioID): BirA*-tagged bait in stable HEK 293-FT cells, 50 μm biotin for 24 h, Benzonase-treated lysate, streptavidin sepharose pull-down, LC-MS/MS, SAINT (Bayesian FDR ≤ 0.05, Log2 fold-change ≥ 1.0); also done in cells treated with PABPN1-specific, ZC3H14-specific or control siRNAs
Experiment [1] addresses T1, BirA*-ZC3H14 (human) (UniProt Q6PJT7).
T1 sequence: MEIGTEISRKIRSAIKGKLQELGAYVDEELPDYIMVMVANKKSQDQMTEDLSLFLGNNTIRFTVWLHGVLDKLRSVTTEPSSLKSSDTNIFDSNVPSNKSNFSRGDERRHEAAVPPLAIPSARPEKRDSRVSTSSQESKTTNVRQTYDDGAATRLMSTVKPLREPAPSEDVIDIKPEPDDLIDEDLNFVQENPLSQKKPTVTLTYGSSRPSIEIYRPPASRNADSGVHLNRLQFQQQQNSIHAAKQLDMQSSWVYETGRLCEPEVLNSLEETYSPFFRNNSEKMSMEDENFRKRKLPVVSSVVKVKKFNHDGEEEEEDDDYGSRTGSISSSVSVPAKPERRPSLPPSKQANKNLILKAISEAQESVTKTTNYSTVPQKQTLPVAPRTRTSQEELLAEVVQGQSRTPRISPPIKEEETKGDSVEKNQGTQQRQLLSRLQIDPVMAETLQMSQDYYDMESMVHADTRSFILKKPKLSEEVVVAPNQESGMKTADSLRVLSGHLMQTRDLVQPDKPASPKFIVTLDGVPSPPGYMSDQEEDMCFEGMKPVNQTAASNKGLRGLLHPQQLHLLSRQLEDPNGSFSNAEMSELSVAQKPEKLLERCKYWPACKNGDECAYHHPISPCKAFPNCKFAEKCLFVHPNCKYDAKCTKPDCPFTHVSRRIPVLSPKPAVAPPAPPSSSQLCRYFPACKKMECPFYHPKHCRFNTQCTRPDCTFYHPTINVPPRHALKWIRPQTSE

In experiment [2] the target is T2, BirA*-PABPN1 (human) (UniProt Q86U42).
T2 sequence: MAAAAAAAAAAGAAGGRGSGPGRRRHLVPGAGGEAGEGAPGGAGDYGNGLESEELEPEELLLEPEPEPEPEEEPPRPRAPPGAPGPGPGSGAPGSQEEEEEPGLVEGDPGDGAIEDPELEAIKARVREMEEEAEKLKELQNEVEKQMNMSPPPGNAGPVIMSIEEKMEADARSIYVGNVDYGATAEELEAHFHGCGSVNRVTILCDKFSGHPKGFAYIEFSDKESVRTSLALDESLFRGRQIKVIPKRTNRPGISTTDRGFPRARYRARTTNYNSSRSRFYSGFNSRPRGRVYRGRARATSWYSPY

The target in experiment [3] is T1, BirA*-ZC3H14 (human). The source holds these as a separate data set.
The target of experiment [4] is T2, BirA*-PABPN1 (human). This is another data set of the same source.

Where two headings read alike, the source gives them in different places. Results are given in words; binding and its absence hold for the method and conditions named. In cells and extracts the contact can be indirect. Here binding means that the protein was enriched with, or labelled near, the bait; the list need not be complete.

In the case of PCF11 (from UniProt O94913 1-1555), the binding result with BirA*-ZC3H14 (human) [1] and with BirA*-PABPN1 (human) [2] was “binds” in each case.
With “poly(A) polymerase alpha (PAPOLA) (from UniProt P51003 1-745) (enzyme)”, in the experiment with BirA*-PABPN1 (human) [2], the binding entry is reported as “binds”.
For ZFC3H1 (from UniProt O60293 1-1989), the binding entry with BirA*-ZC3H14 (human) [1] is “binds”.

B1: ZC3H18 (protein, UniProt Q86VM9 1-953)
chain: MDVAESPERDPHSPEDEEQPQGLSDDDILRDSGSDQDLDGAGVRASDLEDEESAARGPSQEEEDNHSDEEDRASEPKSQDQDSEVNELSRGPTSSPCEEEGDEGEEDRTSDLRDEASSVTRELDEHELDYDEEVPEEPAPAVQEDEAEKAGAEDDEEKGEGTPREEGKAGVQSVGEKESLEAAKEKKKEDDDGEIDDGEIDDDDLEEGEVKDPSDRKVRPRPTCRFFMKGNCTWGMNCRFIHPGVNDKGNYSLITKADPFPPNGAPPLGPHPLMPANPWGGPVVDEILPPPPPEPPTESAWERGLRHAKEVLKKATIRKEQEPDFEEKRFTVTIGEDEREFDKENEVFRDWNSRIPRDVRDTVLEPYADPYYDYEIERFWRGGQYENFRVQYTETEPYHNYRERERERERENRQRERERERERDRERERRQRERERERERERDKERQRRKEEWERERAKRDEKDRQHRDRDREKEREKEKGKPKPRSPQPPSRQAEPPKKEAATTGPQVKRADEWKDPWRRSKSPKKKLGVSVSPSRARRRRKTSASSASASNSSRSSSRSSSYSGSGSSRSRSRSSSYSSYSSRSSRHSSFSGSRSRSRSFSSSPSPSPTPSPHRPSIRTKGEPAPPPGKAGEKSVKKPAPPPAPPQATKTTAPVPEPTKPGDPREARRKERPARTPPRRRTLSGSGSGSGSSYSGSSSRSRSLSVSSVSSVSSATSSSSSAHSVDSEDMYADLASPVSSASSRSPAPAQTRKEKGKSKKEDGVKEEKRKRDSSTQPPKSAKPPAGGKSSQQPSTPQQAPPGQPQQGTFVAHKEIKLTLLNKAADKGSRKRYEPSDKDRQSPPPAKRPNTSPDRGSRDRKSGGRLGSPKPERQRGQNSKAPAAPADRKRQLSPQSKSSSKVTSVPGKASDPGAASTKSGKASTLSRREELLKQLKAVEDAIARKRAKIPGKA
B1: the binding entry with BirA*-ZC3H14 (human) [3] and with BirA*-PABPN1 (human) [4] was “binds” each time.

B2: RBM33 (protein, UniProt Q96EV2 1-1170)
chain: MAAALGASGGAGAGDDDFDQFDKPGAERSWRRRAADEDWDSELEDDLLGEDLLSGKKNQSDLSDEELNDDLLQSDNEDEENFSSQGVTISLNATSGMVTSFELSDNTNDQSGEQESEYEQEQGEDELVYHKSDGSELYTQEYPEEGQYEGHEAELTEDQIEYVEEPEEEQLYTDEVLDIEINEPLDEFTGGMETLELQKDIKEESDEEEEDDEESGRLRFKTERKEGTIIRLSDVTRERRNIPETLELSAEAKAALLEFEERERQHKQGRYSSRRGGRRGGPLMCRGVGDQRRESTERGRMKDHRPALLPTQPPVVPQAPPPPPPPPQQQPIRSLFQPQPLQPLLPVQHPHHPSPPQGMHMPPQLETPRMMMTPPPVTPQQPKNIHINPHFKGTVVTPVQVPLLPVPSQPRPAVGPQRFPGPPEFPQHTPGPVPNSFSQPPRLPLQDQWRAPPPPQDRDPFFLGVSGEPRFPSHLFLEQRSPPPPPPPPTLLNSSHPVPTQSPLPFTQPGPAFNQQGQQPVFPRERPVRPALQPPGPVGILHFSQPGSATTRPFIPPRQPFLPGPGQPFLPTHTQPNLQGPLHPPLPPPHQPQPQQPQQQPPPQHQPPHQPPHQPPPQHQPPPQHPPQHPPQHQHHHHHHHLSVPPPPLMPMSQPQFRPHVQTAQPQASSSRMQCPQRQGLRHNTTSQNVSKRPMQQMQPTAPRNSNLRELPIAPSHVIEMSSSRCSATPSAQVKPIVSASPPSRAVAGSRSSQGKTEVKVKPASPVAQPKEEAKTETEFPDEDEETRLYRLKIEEQKRLREEILKQKELRRQQQAGARKKELLERLAQQQQQLYAPPPPAEQEEQALSPSPTNGNPLLPFPGAQVRQNVKNRLLVKNQDVSISNVQPKTSNFVPSSANMQYQGQQMKALKHLRQTRTVPQSQTQPLHKVLPIKPADVEEPAVPQTPRVASIQGRPQDTKPGVKRTVTHRTNSGGGDGPHISSKVRVIKLSGGGGESDGFFHPEGQPQRLPQPPEVGPQPARKVTLTRGGLQQPPHLPAGPHAHSPVPPGIKSIQGIHPAKKAIMHGRGRGVAGPMGRGRLMPNKQNLRVVECKPQPCVVSVEGLSSSTTDAQLKSLLMSVGPIQSLQMLPQQRKAIAKFKEPAHALAFQQKFHRHMIDLSHINVALIVE
In the case of B2, the binding entry with BirA*-ZC3H14 (human) [3] and with BirA*-PABPN1 (human) [4] was “binds” throughout.

B3: RBM27 (protein, UniProt Q9P2N5 1-1060)
chain: MLIEDVDALKSWLAKLLEPICDADPSALANYVVALVKKDKPEKELKAFCADQLDVFLQKETSGFVDKLFESLYTKNYLPLLEPVKPEPKPLVQEKEEIKEEVFQEPAEEERDGRKKKYPSPQKTRSESSERRTREKKREDGKWRDYDRYYERNELYREKYDWRRGRSKSRSKSRGLSRSRSRSRGRSKDRDPNRNVEHRERSKFKSERNDLESSYVPVSAPPPNSSEQYSSGAQSIPSTVTVIAPAHHSENTTESWSNYYNNHSSSNSFGRNLPPKRRCRDYDERGFCVLGDLCQFDHGNDPLVVDEVALPSMIPFPPPPPGLPPPPPPGMLMPPMPGPGPGPGPGPGPGPGPGPGPGHSMRLPVPQGHGQPPPSVVLPIPRPPITQSSLINSRDQPGTSAVPNLASVGTRLPPPLPQNLLYTVSERQPMYSREHGAAASERLQLGTPPPLLAARLVPPRNLMGSSIGYHTSVSSPTPLVPDTYEPDGYNPEAPSITSSGRSQYRQFFSRTQTQRPNLIGLTSGDMDVNPRAANIVIQTEPPVPVSINSNITRVVLEPDSRKRAMSGLEGPLTKKPWLGKQGNNNQNKPGFLRKNQYTNTKLEVKKIPQELNNITKLNEHFSKFGTIVNIQVAFKGDPEAALIQYLTNEEARKAISSTEAVLNNRFIRVLWHRENNEQPTLQSSAQLLLQQQQTLSHLSQQHHHLPQHLHQQQVLVAQSAPSTVHGGIQKMMSKPQTSGAYVLNKVPVKHRLGHAGGNQSDASHLLNQSGGAGEDCQIFSTPGHPKMIYSSSNLKTPSKLCSGSKSHDVQEVLKKKQEAMKLQQDMRKKRQEVLEKQIECQKMLISKLEKNKNMKPEERANIMKTLKELGEKISQLKDELKTSSAVSTPSKVKTKTEAQKELLDTELDLHKRLSSGEDTTELRKKLSQLQVEAARLGILPVGRGKTMSSQGRGRGRGRGGRGRGSLNHMVVDHRPKALTVGGFIEEEKEDLLQHFSTANQGPKFKDRRLQISWHKPKVPSISTETEEEEVKEEETETSDLFLPDDDDEDEDEYESRSWRR
With B3, the binding entry with BirA*-ZC3H14 (human) [3] and with BirA*-PABPN1 (human) [4] was “binds” throughout.
